Experimental data from PMC4999505.
Results are given in words; binding and its absence hold for the method and conditions named. In cells and extracts the contact can be indirect. Some binding calls cover weakened binding; strength is not graded here.

The chains behind the UniProt entries cited, without tags or fusion partners. Residues count along the entry.
UniProt P19438, residues 30-455: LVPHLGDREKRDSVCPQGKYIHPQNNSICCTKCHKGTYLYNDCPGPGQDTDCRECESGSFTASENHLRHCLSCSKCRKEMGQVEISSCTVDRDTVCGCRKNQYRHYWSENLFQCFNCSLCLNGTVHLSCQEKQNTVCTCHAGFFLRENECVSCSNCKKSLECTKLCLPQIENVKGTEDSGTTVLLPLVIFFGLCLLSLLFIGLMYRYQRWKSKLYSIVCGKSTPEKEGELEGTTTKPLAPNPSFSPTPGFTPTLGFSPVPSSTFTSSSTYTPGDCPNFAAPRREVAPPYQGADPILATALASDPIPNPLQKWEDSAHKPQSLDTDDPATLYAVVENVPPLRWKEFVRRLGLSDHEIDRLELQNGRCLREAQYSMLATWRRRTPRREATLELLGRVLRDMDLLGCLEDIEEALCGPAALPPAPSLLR

B1: TNFR-associated protein with a death domain (TRADD), endogenous (protein, UniProt Q15628 1-312)
chain: MAAGQNGHEEWVGSAYLFVESSLDKVVLSDAYAHPQQKVAVYRALQAALAESGGSPDVLQMLKIHRSDPQLIVQLRFCGRQPCGRFLRAYREGALRAALQRSLAAALAQHSVPLQLELRAGAERLDALLADEERCLSCILAQQPDRLRDEELAELEDALRNLKCGSGARGGDGEVASAPLQPPVPSLSEVKPPPPPPPAQTFLFQGQPVVNRPLSLKDQQTFARSVGLKWRKVGRSLQRGCRALRDPALDSLAYEYEREGLYEQAFQLLRRFVQAEGRRATLQRLVEALEENELTSLAEDLLGLTDPNGGLA
B2: endogenous SHARPIN (LUBAC component) (protein, UniProt Q9H0F6 1-387)
chain: MAPPAGGAAAAASDLGSAAVLLAVHAAVRPLGAGPDAEAQLRRLQLSADPERPGRFRLELLGAGPGAVNLEWPLESVSYTIRGPTQHELQPPPGGPGTLSLHFLNPQEAQRWAVLVRGATVEGQNGSKSNSPPALGPEACPVSLPSPPEASTLKGPPPEADLPRSPGNLTEREELAGSLARAIAGGDEKGAAQVAAVLAQHRVALSVQLQEACFPPGPIRLQVTLEDAASAASAASSAHVALQVHPHCTVAALQEQVFSELGFPPAVQRWVIGRCLCVPERSLASYGVRQDGDPAFLYLLSAPREAPATGPSPQHPQKMDGELGRLFPPSLGLPPGPQPAASSLPSPLQPSWSCPSCTFINAPDRPGCEMCSTQRPCTWDPLAAAST

Biological target: TNF receptor (TNFR) (human (endogenous in HeLa)) (UniProt P19438)
Experiment: co-IP; parental and OPTN-KO HeLa cells stimulated with 1 μg/ml FLAG-TNF-α for the indicated times, lysed in 1% Triton X-100 buffer; TNFR complex I precipitated with anti-FLAG M2 beads, immunoblotting; also with overexpression of OPTN (Supplementary Fig. 10)

Binder | binding
B1 | binds
B2 | binds
